Source: the supplement of paper PMC10849652
Some of the results follow.

Sequences of proteins named here, by UniProt entry; tags and fusion partners are left off. A change or cut given only in a name is not applied to a line headed by its entry.
UniProt P29083: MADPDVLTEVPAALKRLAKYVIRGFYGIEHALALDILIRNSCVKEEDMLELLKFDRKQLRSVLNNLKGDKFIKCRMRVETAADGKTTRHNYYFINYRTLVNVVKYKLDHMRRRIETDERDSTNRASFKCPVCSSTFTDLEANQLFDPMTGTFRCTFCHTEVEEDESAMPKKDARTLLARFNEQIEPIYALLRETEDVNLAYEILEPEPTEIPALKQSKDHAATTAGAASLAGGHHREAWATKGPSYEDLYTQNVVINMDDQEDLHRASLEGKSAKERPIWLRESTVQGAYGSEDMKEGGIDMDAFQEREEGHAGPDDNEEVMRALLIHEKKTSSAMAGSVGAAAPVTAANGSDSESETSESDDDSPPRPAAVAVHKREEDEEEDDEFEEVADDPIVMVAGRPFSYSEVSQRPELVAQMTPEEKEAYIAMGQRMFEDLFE
UniProt Q9H6D7: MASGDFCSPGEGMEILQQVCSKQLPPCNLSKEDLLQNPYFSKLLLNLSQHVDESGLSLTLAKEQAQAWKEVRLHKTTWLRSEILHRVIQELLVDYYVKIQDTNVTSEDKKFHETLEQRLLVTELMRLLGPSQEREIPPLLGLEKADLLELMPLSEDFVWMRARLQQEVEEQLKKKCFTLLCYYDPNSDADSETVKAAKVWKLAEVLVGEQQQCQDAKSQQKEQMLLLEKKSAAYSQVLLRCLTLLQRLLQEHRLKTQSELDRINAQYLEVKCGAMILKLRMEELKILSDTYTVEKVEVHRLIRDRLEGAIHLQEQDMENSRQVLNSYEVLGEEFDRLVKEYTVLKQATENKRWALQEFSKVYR
UniProt P49841: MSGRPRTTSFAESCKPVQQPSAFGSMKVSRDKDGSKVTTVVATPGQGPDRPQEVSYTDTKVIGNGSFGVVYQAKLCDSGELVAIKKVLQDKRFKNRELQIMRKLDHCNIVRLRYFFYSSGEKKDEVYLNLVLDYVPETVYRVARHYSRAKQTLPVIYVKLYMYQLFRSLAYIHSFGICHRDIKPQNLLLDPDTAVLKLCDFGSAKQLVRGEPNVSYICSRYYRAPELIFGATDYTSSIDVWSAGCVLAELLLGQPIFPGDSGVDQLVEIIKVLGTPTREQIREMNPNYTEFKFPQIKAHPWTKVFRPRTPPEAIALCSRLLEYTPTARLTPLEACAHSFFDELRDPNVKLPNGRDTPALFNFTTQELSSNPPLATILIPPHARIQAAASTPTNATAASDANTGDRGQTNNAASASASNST
UniProt Q92769, whole entry, looked up: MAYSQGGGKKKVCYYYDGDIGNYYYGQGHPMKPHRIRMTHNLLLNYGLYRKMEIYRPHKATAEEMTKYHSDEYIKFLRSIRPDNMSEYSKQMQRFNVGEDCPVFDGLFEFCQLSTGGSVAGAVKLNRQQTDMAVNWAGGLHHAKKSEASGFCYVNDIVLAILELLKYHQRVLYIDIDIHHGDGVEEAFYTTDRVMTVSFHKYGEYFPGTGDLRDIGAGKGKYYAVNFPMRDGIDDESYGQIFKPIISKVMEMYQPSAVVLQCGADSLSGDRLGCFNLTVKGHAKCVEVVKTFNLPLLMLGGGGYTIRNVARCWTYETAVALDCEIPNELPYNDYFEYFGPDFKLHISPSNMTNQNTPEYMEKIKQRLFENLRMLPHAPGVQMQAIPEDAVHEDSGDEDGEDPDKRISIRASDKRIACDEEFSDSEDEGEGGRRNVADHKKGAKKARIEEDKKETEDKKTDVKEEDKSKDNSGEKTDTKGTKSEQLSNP
UniProt P40939: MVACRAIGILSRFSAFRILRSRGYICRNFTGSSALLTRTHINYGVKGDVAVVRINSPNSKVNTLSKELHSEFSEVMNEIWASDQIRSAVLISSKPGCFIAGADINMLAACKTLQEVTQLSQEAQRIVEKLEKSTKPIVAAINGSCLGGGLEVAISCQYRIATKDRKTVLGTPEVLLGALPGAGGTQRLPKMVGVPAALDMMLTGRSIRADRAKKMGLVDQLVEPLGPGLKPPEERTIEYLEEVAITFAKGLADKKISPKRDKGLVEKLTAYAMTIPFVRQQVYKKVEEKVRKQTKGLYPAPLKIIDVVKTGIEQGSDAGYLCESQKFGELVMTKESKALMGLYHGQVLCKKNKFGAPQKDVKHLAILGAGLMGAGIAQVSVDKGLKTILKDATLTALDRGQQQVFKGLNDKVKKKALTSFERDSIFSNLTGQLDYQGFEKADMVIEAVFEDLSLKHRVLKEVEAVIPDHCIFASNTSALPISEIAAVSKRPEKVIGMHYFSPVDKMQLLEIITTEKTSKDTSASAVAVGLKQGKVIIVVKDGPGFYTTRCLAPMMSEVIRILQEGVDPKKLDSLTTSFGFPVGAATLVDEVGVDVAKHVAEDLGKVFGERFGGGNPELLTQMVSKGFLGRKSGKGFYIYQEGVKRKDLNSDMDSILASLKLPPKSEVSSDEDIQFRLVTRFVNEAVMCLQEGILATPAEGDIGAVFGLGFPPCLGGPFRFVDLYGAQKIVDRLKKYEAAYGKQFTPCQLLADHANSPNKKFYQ
UniProt Q7Z4Q2: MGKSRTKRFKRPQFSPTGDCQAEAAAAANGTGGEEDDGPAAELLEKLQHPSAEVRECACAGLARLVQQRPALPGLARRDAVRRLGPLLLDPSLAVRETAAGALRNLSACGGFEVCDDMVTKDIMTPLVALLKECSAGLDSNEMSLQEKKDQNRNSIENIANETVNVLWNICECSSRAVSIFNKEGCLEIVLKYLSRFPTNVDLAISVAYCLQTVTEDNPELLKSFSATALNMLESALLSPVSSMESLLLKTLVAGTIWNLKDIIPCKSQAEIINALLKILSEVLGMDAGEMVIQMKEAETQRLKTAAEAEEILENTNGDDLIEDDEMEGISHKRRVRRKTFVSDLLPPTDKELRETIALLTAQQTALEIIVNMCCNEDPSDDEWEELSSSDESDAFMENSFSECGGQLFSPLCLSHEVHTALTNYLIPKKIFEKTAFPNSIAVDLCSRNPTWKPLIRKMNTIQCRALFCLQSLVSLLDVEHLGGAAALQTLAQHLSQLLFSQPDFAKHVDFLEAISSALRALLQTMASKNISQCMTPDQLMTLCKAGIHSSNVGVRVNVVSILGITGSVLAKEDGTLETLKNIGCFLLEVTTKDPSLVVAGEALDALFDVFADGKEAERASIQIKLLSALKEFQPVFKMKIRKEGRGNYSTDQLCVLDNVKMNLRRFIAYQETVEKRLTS
UniProt P08236: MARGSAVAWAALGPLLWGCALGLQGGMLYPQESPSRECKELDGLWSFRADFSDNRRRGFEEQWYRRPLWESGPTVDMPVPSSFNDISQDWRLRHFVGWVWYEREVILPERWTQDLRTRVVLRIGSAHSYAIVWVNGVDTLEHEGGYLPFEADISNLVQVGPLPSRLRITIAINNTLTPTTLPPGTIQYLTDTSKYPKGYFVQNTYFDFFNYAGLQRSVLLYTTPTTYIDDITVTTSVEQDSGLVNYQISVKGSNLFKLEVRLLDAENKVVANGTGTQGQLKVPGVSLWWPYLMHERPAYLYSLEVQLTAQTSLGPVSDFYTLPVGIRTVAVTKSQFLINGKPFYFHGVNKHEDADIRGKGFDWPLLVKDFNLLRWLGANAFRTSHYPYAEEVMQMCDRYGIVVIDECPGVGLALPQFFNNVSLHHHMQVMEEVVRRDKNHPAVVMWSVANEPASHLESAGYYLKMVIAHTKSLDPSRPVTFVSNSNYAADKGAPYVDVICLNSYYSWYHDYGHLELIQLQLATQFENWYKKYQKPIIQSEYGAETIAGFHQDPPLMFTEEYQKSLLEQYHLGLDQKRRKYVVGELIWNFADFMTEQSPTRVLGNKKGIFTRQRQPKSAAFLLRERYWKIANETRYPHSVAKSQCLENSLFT
UniProt P06865: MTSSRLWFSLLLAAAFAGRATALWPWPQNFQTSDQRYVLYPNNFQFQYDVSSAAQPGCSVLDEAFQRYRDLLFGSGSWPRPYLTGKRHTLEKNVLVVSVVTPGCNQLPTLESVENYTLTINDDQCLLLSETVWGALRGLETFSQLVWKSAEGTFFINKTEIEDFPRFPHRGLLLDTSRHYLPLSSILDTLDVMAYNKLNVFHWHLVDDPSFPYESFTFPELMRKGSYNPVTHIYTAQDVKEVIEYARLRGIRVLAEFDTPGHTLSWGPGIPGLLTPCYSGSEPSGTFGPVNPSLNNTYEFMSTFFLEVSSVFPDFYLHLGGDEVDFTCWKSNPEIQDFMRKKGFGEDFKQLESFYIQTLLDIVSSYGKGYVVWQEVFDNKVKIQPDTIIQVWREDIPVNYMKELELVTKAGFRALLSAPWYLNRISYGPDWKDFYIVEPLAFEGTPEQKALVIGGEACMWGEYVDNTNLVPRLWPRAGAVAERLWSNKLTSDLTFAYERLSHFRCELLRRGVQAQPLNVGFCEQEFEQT
UniProt Q9UKN8: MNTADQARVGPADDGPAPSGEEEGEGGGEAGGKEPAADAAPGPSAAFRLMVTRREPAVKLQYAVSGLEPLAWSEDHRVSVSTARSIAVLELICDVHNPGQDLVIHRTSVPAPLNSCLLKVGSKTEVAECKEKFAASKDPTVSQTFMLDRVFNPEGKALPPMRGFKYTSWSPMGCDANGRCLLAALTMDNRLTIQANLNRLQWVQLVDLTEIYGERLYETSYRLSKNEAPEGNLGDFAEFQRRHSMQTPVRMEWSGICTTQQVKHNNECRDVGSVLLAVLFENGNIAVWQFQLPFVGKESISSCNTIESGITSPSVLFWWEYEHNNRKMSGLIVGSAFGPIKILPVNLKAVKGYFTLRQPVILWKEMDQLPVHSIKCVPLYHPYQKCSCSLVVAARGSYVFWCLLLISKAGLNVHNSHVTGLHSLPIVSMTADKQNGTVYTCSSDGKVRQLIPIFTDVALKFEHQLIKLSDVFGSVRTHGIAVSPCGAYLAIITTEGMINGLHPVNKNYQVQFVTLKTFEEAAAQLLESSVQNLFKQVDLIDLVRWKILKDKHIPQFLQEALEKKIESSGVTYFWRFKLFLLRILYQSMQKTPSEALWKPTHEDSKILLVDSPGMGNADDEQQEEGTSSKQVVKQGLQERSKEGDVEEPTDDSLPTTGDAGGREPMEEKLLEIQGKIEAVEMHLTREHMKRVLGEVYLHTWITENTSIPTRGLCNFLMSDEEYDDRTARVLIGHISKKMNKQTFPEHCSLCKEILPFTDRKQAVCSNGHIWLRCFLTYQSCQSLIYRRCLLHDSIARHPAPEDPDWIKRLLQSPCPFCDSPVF
UniProt P09105: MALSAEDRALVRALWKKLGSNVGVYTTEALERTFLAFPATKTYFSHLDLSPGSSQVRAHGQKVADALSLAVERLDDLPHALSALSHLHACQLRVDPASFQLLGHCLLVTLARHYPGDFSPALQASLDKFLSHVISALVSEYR
UniProt P46976: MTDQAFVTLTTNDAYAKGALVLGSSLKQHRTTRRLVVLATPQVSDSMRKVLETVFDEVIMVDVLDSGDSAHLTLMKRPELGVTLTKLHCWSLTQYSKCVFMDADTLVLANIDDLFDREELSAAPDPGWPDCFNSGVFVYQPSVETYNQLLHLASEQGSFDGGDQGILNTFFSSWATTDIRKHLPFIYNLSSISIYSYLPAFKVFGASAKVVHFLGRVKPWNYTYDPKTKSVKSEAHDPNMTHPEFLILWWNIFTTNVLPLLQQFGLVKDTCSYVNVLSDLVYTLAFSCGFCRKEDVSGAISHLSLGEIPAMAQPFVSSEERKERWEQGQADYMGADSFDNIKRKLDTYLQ
UniProt P07686: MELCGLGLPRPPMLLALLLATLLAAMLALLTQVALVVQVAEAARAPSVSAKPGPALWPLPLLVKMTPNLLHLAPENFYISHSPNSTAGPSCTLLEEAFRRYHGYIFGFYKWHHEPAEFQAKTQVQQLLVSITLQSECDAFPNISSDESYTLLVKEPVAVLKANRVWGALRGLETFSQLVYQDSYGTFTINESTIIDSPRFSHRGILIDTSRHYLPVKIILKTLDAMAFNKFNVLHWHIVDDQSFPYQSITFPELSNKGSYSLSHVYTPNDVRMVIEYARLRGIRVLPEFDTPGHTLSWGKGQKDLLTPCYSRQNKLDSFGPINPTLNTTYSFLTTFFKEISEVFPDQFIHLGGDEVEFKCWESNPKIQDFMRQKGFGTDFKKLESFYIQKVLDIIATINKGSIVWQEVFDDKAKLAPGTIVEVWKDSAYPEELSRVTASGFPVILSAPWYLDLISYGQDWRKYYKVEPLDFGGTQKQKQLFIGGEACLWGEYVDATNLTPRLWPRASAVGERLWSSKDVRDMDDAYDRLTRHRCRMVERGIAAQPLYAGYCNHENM
UniProt Q03013: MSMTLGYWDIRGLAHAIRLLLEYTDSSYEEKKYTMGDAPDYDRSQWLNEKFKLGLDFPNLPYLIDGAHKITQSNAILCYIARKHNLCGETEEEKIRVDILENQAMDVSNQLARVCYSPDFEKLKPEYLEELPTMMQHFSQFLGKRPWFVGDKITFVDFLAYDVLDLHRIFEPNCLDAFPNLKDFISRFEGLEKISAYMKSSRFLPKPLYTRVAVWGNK

Assays:
Assay in all cases: log2 fold change, soluble protein after heating vs DMSO (PISA); higher = thermal stabilisation; K562 cells, 10 uM, 30 min; active = over 0.2 and 3.5 SD of the protein, either way, in both replicates (recomputed)
saracatinib = compound: CN1CCN(CCOc2cc(OC3CCOCC3)c3c(Nc4c(Cl)ccc5c4OCO5)ncnc3c2)CC1 [saracatinib]
How it was run: (§1)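 K562 cells at 2×10^6 cells/mL were treated for 30 min with 10 μM compound, and aliquots were heated for 3 min over 48°C-58°C before pooling. Extraction used PBS with 0.5% NP-40 at 4°C, and soluble protein was the supernatant after 21,000xg for 90 min, measured by TMTpro 16plex LC-MS/MS with channel sums equalised. Thermal stability values, relative to control samples and from duplicates, are log2 fold changes.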

sotrastaurin = compound: CN1CCN(c2nc(C3=C(c4c[nH]c5ccccc45)C(=O)NC3=O)c3ccccc3n2)CC1 [sotrastaurin]
How it was run: as §1

Tubastatin A = compound: CN1CCc2c(c3ccccc3n2Cc2ccc(C(=O)NO)cc2)C1 [Tubastatin A]
How it was run: as §1

[1] = compound: CNC(=O)C1=CC=CC=C1NC2=NC(=NC=C2Cl)NC3=C(C=C(C=C3)N4CCOCC4)OC
How it was run: as §1

defactinib = compound: CNC(=O)c1ccc(Nc2ncc(C(F)(F)F)c(NCc3nccnc3N(C)S(C)(=O)=O)n2)cc1 [defactinib]
How it was run: as §1

rucaparib = compound: CNCc1ccc(-c2[nH]c3cc(F)cc4c3c2CCNC4=O)cc1 [rucaparib]
How it was run: as §1

[2] = compound: CNc1nc(-c2ccc3c(N)n[nH]c3c2)cc(N2C[C@@H](C(=O)NC3CCCCC3)CC[C@H]2C)n1
How it was run: as §1

encorafenib = compound: COC(=O)N[C@@H](C)CNc1nccc(-c2cn(C(C)C)nc2-c2cc(Cl)cc(NS(C)(=O)=O)c2F)n1 [encorafenib]
How it was run: as §1

[3] = compound: COC(=O)[C@H](CCSC)NC(=O)C1=C(C=C(C=C1)NC[C@H](CS)N)C2=CC=CC=C2
How it was run: as §1

[4] = compound: COC1=CC=C(C=C1)CN2C=CC3=C2C=C(C=C3)C(=O)NO
How it was run: as §1

filanesib = compound: CON(C)C(=O)N1N=C(c2cc(F)ccc2F)S[C@@]1(CCCN)c1ccccc1 [filanesib]
How it was run: as §1

zotarolimus = compound: CO[C@H]1C[C@@H]2CC[C@@H](C)[C@@](O)(O2)C(=O)C(=O)N2CCCC[C@H]2C(=O)O[C@H]([C@H](C)C[C@@H]2CC[C@H](n3cnnn3)[C@H](OC)C2)CC(=O)[C@H](C)/C=C(\C)[C@@H](O)[C@@H](OC)C(=O)[C@H](C)C[C@H](C)/C=C/C=C/C=C/1C [zotarolimus]
How it was run: as §1

idasanutlin = compound: COc1cc(C(=O)O)ccc1NC(=O)[C@@H]1N[C@@H](CC(C)(C)C)[C@](C#N)(c2ccc(Cl)cc2F)[C@H]1c1cccc(Cl)c1F [idasanutlin]
How it was run: as §1

alisertib = compound: COc1cc(Nc2ncc3c(n2)-c2ccc(Cl)cc2C(c2c(F)cccc2OC)=NC3)ccc1C(=O)O [alisertib]
How it was run: as §1

[5] = compound: COc1cc2nc(-c3cc(F)ccc3O)nc(N[C@@H]3CNC[C@H]3C(C)(C)O)c2cc1OC
How it was run: as §1

gefitinib = compound: COc1cc2ncnc(Nc3ccc(F)c(Cl)c3)c2cc1OCCCN1CCOCC1 [gefitinib]
How it was run: as §1

[6] = compound: COc1cccc2cc(-c3nc([C@H]4CC[C@H](C(=O)O)CC4)n4ncnc(N)c34)[nH]c12
How it was run: as §1

lapatinib = compound: CS(=O)(=O)CCNCc1ccc(-c2ccc3ncnc(Nc4ccc(OCc5cccc(F)c5)c(Cl)c4)c3c2)o1 [lapatinib]
How it was run: as §1

pictilisib = compound: CS(=O)(=O)N1CCN(Cc2cc3nc(-c4cccc5[nH]ncc45)nc(N4CCOCC4)c3s2)CC1 [pictilisib]
How it was run: as §1

Row | Target | log2 fold change (saracatinib) | log2 fold change (sotrastaurin) | log2 fold change (Tubastatin A) | log2 fold change [1] | log2 fold change (defactinib) | log2 fold change (rucaparib) | log2 fold change [2] | log2 fold change (encorafenib) | log2 fold change [3] | log2 fold change [4] | log2 fold change (filanesib) | log2 fold change (zotarolimus) | log2 fold change (idasanutlin) | log2 fold change (alisertib) | log2 fold change [5] | log2 fold change (gefitinib) | log2 fold change [6] | log2 fold change (lapatinib) | log2 fold change (pictilisib)
1 | GTF2E1 (UniProt P29083) | inactive: -0.026 | inactive: -0.11 | inactive: 0.064 | inactive: 0 | inactive: -0.272 | inactive: -0.126 | inactive: -0.047 | inactive: 0.199 | inactive: -0.099 | inactive: 0.042 | inactive: 0.01 | inactive: 0.004 | inactive: -0.032 | inactive: -0.026 | inactive: 0.06 | inactive: 0.013 | inactive: 0.012 | inactive: -0.037 | inactive: -0.002
2 | HAUS4 (UniProt Q9H6D7) | inactive: 0.466 | inactive: -0.194 | inactive: 0.044 | inactive: 0.195 | inactive: 0.019 | inactive: 0.337 | inactive: 0.044 | inactive: 0.194 | inactive: -0.03 | – | inactive: 0.245 | inactive: 0.05 | inactive: 0.126 | inactive: -0.103 | inactive: 0.024 | inactive: -0.086 | inactive: 0.323 | inactive: -0.038 | inactive: -0.162
3 | GSK3B isoform 2 (UniProt P49841) | inactive: 0.012 | inactive: 0.2 | inactive: -0.007 | inactive: 0.001 | inactive: -0.015 | inactive: 0.059 | inactive: -0.019 | inactive: -0.003 | inactive: 0.03 | inactive: 0.133 | inactive: -0.034 | inactive: 0.013 | inactive: -0.121 | – | inactive: 0.056 | inactive: -0.041 | inactive: 0.022 | inactive: -0.013 | inactive: 0.014
4 | GTPBP6 (UniProt O43824) | inactive: 0.049 | inactive: -0.011 | inactive: -0.03 | inactive: -0.149 | inactive: -0.013 | inactive: 0.053 | inactive: 0.007 | inactive: -0.086 | inactive: 0.057 | inactive: -0.105 | inactive: 0.049 | inactive: 0.061 | inactive: 0.018 | inactive: -0.217 | – | inactive: -0.146 | inactive: 0 | – | inactive: -0.012
5 | GSR (UniProt P00390) | inactive: -0.021 | inactive: 0.048 | inactive: 0.008 | inactive: -0.006 | inactive: -0.016 | inactive: -0.025 | inactive: -0.021 | inactive: -0.02 | inactive: 0.002 | inactive: 0.023 | inactive: -0.065 | inactive: -0.039 | inactive: -0.049 | inactive: -0.032 | inactive: 0.015 | inactive: -0.016 | inactive: 0.043 | inactive: -0.057 | inactive: 0.036
6 | HDAC2 (UniProt Q92769) | inactive: -0.001 | inactive: -0.02 | active: 0.907 | inactive: -0.113 | inactive: -0.035 | inactive: -0.006 | inactive: -0.015 | inactive: -0.046 | inactive: -0.006 | inactive: -0.144 | inactive: 0.029 | inactive: 0.008 | inactive: 0.008 | inactive: -0.041 | inactive: 0 | inactive: 0.007 | inactive: 0.017 | inactive: 0.063 | inactive: 0.024
7 | HADHA (UniProt P40939) | inactive: -0.102 | inactive: 0.032 | inactive: 0.05 | inactive: 0.044 | inactive: -0.19 | inactive: 0.177 | active: 0.595 | inactive: -0.024 | inactive: -0.191 | inactive: 0.267 | inactive: 0.082 | inactive: 0.081 | inactive: -0.321 | inactive: -0.035 | inactive: 0.155 | inactive: 0.209 | inactive: -0.088 | inactive: 0.148 | inactive: 0.425
8 | HEATR3 (UniProt Q7Z4Q2) | inactive: -0.045 | inactive: -0.167 | inactive: 0.109 | inactive: -0.054 | inactive: -0.048 | inactive: 0.081 | inactive: -0.006 | inactive: -0.028 | inactive: -0.006 | inactive: 0.027 | inactive: 0.007 | inactive: -0.004 | – | inactive: 0.099 | inactive: -0.083 | inactive: 0.072 | inactive: 0.046 | inactive: 0.004 | inactive: -0.134
9 | GUSB (UniProt P08236) | inactive: 0.03 | inactive: -0.004 | inactive: -0.054 | inactive: 0.045 | inactive: -0.055 | inactive: 0.048 | inactive: -0.039 | inactive: 0.128 | inactive: 0.029 | inactive: -0.063 | inactive: -0.016 | inactive: 0.014 | inactive: 0.034 | inactive: 0.022 | inactive: -0.084 | inactive: -0.013 | inactive: -0.027 | inactive: 0.016 | inactive: 0.098
10 | HEXA (UniProt P06865) | inactive: 0.031 | inactive: 0.098 | inactive: -0.145 | inactive: -0.012 | inactive: -0.008 | inactive: -0.07 | inactive: -0.018 | inactive: 0.003 | inactive: 0.016 | inactive: 0.028 | inactive: -0.066 | inactive: -0.015 | inactive: -0.012 | inactive: -0.095 | inactive: 0.01 | inactive: -0.005 | inactive: 0.035 | inactive: 0 | inactive: 0.03
11 | GTF3C4 (UniProt Q9UKN8) | inactive: 0.06 | inactive: 0.021 | inactive: -0.009 | inactive: -0.005 | inactive: -0.081 | inactive: 0.029 | inactive: -0.001 | inactive: 0.043 | inactive: -0.01 | inactive: -0.038 | inactive: 0.034 | inactive: 0.019 | inactive: -0.003 | inactive: -0.032 | inactive: 0.007 | inactive: 0.058 | inactive: -0.011 | inactive: 0.029 | inactive: 0.028
12 | HBQ1 (UniProt P09105) | inactive: -0.029 | inactive: 0.007 | inactive: -0.011 | inactive: -0.013 | inactive: -0.009 | inactive: -0.027 | inactive: 0.008 | inactive: -0.007 | inactive: 0.028 | inactive: -0.034 | inactive: -0.027 | inactive: 0.051 | inactive: -0.023 | inactive: -0.115 | inactive: -0.05 | inactive: 0.033 | inactive: 0.091 | inactive: 0.001 | inactive: -0.012
13 | GYG1 (UniProt P46976) | inactive: -0.03 | inactive: -0.425 | inactive: 0.033 | inactive: 0.091 | inactive: -0.042 | inactive: 0.062 | inactive: 0.038 | inactive: 0.083 | inactive: 0.013 | inactive: 0.08 | inactive: 0.124 | inactive: 0.036 | inactive: 0.15 | inactive: -0.133 | inactive: -0.163 | inactive: -0.028 | inactive: -0.195 | inactive: 0.051 | active: 0.376
14 | HEXB (UniProt P07686) | inactive: 0 | inactive: 0.029 | inactive: -0.101 | inactive: 0.017 | inactive: -0.002 | inactive: -0.078 | inactive: -0.033 | inactive: 0.01 | inactive: -0.001 | inactive: 0.012 | inactive: -0.092 | inactive: -0.042 | inactive: 0.018 | inactive: -0.058 | inactive: 0.017 | inactive: 0.005 | inactive: 0.044 | inactive: -0.001 | inactive: 0.021
15 | HEATR1 (UniProt Q9H583) | inactive: -0.005 | inactive: 0.074 | inactive: -0.119 | inactive: -0.21 | inactive: -0.176 | – | inactive: 0 | – | inactive: -0.018 | inactive: 0 | inactive: 0.033 | – | inactive: -0.118 | inactive: -0.048 | inactive: -0.146 | inactive: 0.041 | inactive: -0.111 | inactive: 0.025 | inactive: 0.095
16 | HDAC6 (UniProt Q9UBN7) | inactive: -0.067 | inactive: -0.013 | active: 1.01 | inactive: -0.037 | inactive: -0.028 | inactive: -0.028 | inactive: 0.09 | inactive: -0.135 | inactive: -0.014 | active: 0.676 | inactive: 0.006 | inactive: 0.008 | inactive: -0.055 | inactive: -0.097 | inactive: 0.028 | inactive: 0.043 | inactive: -0.027 | inactive: 0.016 | inactive: 0.062
17 | GSTM4 (UniProt Q03013) | inactive: -0.106 | inactive: -0.066 | inactive: -0.044 | inactive: 0.003 | inactive: -0.086 | active: -0.385 | inactive: 0.06 | inactive: -0.238 | inactive: 0.093 | inactive: 0.027 | inactive: 0.103 | inactive: 0.084 | inactive: 0.031 | inactive: 0.061 | inactive: 0.084 | inactive: -0.056 | inactive: 0.068 | inactive: 0.031 | inactive: 0.022

A different layout for some results above.

| Row | Target | log2 fold change (saracatinib) | log2 fold change (sotrastaurin) | log2 fold change (Tubastatin A) | log2 fold change [1] | log2 fold change (defactinib) | log2 fold change (rucaparib) | log2 fold change [2] | log2 fold change (encorafenib) | log2 fold change [3] | log2 fold change [4] | log2 fold change (filanesib) | log2 fold change (zotarolimus) | log2 fold change (idasanutlin) | log2 fold change (alisertib) | log2 fold change [5] | log2 fold change (gefitinib) | log2 fold change [6] | log2 fold change (lapatinib) | log2 fold change (pictilisib) |
| --- | --- | --- | --- | --- | --- | --- | --- | --- | --- | --- | --- | --- | --- | --- | --- | --- | --- | --- | --- | --- |
| 12 | HBQ1 (UniProt P09105) | inactive: -0.029 | inactive: 0.007 | inactive: -0.011 | inactive: -0.013 | inactive: -0.009 | inactive: -0.027 | inactive: 0.008 | inactive: -0.007 | inactive: 0.028 | inactive: -0.034 | inactive: -0.027 | inactive: 0.051 | inactive: -0.023 | inactive: -0.115 | inactive: -0.05 | inactive: 0.033 | inactive: 0.091 | inactive: 0.001 | inactive: -0.012 |
| 13 | GYG1 (UniProt P46976) | inactive: -0.03 | inactive: -0.425 | inactive: 0.033 | inactive: 0.091 | inactive: -0.042 | inactive: 0.062 | inactive: 0.038 | inactive: 0.083 | inactive: 0.013 | inactive: 0.08 | inactive: 0.124 | inactive: 0.036 | inactive: 0.15 | inactive: -0.133 | inactive: -0.163 | inactive: -0.028 | inactive: -0.195 | inactive: 0.051 | active: 0.376 |
